Taken from: PubChem BioAssay AID1259254 (NCATS, 2017)

Aim: 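Gene knock-downs that lead to re-replication, shown by excess G2 DNA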 (primary screen)
System: human HCT116 colorectal cancer cells
Reagent: single siRNA against human genes
Time to read-out: 3 days
Measurement: 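Nuclei stained with Hoechst and imaged; cell-cycle phase assigned by DNA content; G2 share scaled per plate, non-targeting siRNA 0%, GMNN siRNA 100%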
Scale: G2 robust z-score and G2 cells, % of GMNN control: higher = more G2 cells, more excess DNA replication; raw share of cells in G2: higher = larger share of cells with G2 DNA content
Active means: 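An siRNA counts as active if its G2 robust z-score lies at least 5 MADs above the screen median; here such calls match roughly 38% of GMNN control or more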
In all, the deposit lists about 59,000 reagents; this is an unselected part. About 1,550 of them (2.6%) count as active. 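G2 share is only a proxy for re-replication; each gene was hit by three separate siRNAs, and active genes were retested.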 The raw values are shown without normalisation. Entries without a mark were called inactive. The numbers tell different reagents against one gene apart. Not stated in the record: the amount of reagent.

gene symbol | reagent no. | G2 robust z-score | G2 cells, % of GMNN control | raw share of cells in G2 (%)
H2AC17 | 1 | -0.19 | 1.63 | 4.89
H2AC17 | 2 | 2.72 | 22.1 | 10.9
H2AC17 | 3 | 0.83 | 8.81 | 6.59
SERPINB2 | 1 | -0.69 | -1.89 | 2.55
SERPINB2 | 2 | -0.405 | 0.115 | 5.25
SERPINB2 | 3 | -0.618 | -1.38 | 4.19
ERCC6 | 1 | -0.489 | -0.47 | 5.07
ERCC6 | 2 | 0.388 | 5.7 | 7.43
ERCC6 | 3 | -0.355 | 0.472 | 3.83
LENG8 | 1 | 2.9 | 23.4 | 16.5
LENG8 | 2 | 1.26 | 11.8 | 10
LENG8 | 3 | 0.371 | 5.58 | 6.59
ARL8B | 1 | 0.903 | 9.32 | 7.78
ARL8B | 2 | 3.03 | 24.3 | 14.5
ARL8B | 3 | 5.46 (active) | 41.4 | 24.6
RANBP9 | 1 | -0.162 | 1.83 | 5.89
RANBP9 | 2 | -0.601 | -1.26 | 2.77
RANBP9 | 3 | 0.633 | 7.42 | 7.76
GSN | 1 | 2.07 | 17.5 | 11.6
GSN | 2 | -0.321 | 0.71 | 5.53
GSN | 3 | -0.0732 | 2.45 | 4.53
ANKS3 | 1 | 0.731 | 8.11 | 7.34
ANKS3 | 2 | 0.732 | 8.12 | 5.75
ANKS3 | 3 | -0.506 | -0.591 | 1.65
C1QL1 | 1 | -0.349 | 0.51 | 5.18
C1QL1 | 2 | -0.651 | -1.61 | 3.47
C1QL1 | 3 | -0.402 | 0.141 | 3.23
POPDC2 | 1 | 0.591 | 7.13 | 7.68
POPDC2 | 2 | 0.123 | 3.83 | 6.33
POPDC2 | 3 | -0.428 | -0.0453 | 2.69
OOSP2 | 1 | 0.505 | 6.52 | 5.94
OOSP2 | 2 | -1.19 | -5.4 | 1.28
OOSP2 | 3 | 1.28 | 12 | 7.03
TFF1 | 1 | 2.91 | 23.5 | 11.9
TFF1 | 2 | -0.0689 | 2.48 | 5.83
TFF1 | 3 | -0.202 | 1.54 | 5.27
TAFA1 | 1 | 2.73 | 22.2 | 11.9
TAFA1 | 2 | 0.554 | 6.86 | 6.24
TAFA1 | 3 | -1.01 | -4.15 | 3.07
MAP3K13 | 1 | -0.644 | -1.57 | 5.1
MAP3K13 | 2 | 0.892 | 9.25 | 8.55
MAP3K13 | 3 | 0.147 | 4 | 4.96
PSMC4 | 1 | 1.13 | 10.9 | 7.77
PSMC4 | 2 | 4.36 | 33.6 | 17.5
PSMC4 | 3 | 4.81 | 36.8 | 17.6
LY86 | 1 | -0.307 | 0.805 | 5.69
LY86 | 2 | -0.789 | -2.58 | 2.87
LY86 | 3 | 0.132 | 3.89 | 4.82

4 consecutive entries from above, for reference:
gene symbol | reagent no. | G2 robust z-score | G2 cells, % of GMNN control | raw share of cells in G2 (%)
PSMC4 | 1 | 1.13 | 10.9 | 7.77
PSMC4 | 2 | 4.36 | 33.6 | 17.5
PSMC4 | 3 | 4.81 | 36.8 | 17.6
LY86 | 1 | -0.307 | 0.805 | 5.69
